Source: patent US4305852A (American Home Products Corporation, priority 1980, dated 1981)

Test: general procedure: Boc solid-phase peptide synthesis; benzhydrylamine polystyrene resin; DIC/HOBT
Settings: whole synthesis, HPLC μ Bondapak C18, triacetate

L-arginyl-L-lysyl-L-aspartyl-L-valyl-D-alaninamide triacetate
final HPLC purity: 98%
